Reference: the supplement of paper PMC6411743
± gives the standard deviation of the averaged measurements. The list shows a part of the results, in another mix than the full data.

Protein sequences, listed by entry. Tags and fused reporters are not part of them. Lines headed by an entry give the natural chain unless they say otherwise; changes in a name come on top.
UniProt Q9BZI7: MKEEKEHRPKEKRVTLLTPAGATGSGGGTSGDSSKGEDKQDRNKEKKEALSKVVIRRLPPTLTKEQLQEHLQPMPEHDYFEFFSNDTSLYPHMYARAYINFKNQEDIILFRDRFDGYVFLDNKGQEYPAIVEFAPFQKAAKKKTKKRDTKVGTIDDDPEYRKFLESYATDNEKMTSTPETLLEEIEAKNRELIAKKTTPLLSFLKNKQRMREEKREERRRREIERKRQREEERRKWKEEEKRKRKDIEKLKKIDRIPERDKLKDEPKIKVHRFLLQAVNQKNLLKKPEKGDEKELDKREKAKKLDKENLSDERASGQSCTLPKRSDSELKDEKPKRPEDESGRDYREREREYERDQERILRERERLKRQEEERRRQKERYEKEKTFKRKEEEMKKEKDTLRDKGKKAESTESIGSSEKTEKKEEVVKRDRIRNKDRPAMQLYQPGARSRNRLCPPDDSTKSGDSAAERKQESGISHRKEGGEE
UniProt Q9BYG5: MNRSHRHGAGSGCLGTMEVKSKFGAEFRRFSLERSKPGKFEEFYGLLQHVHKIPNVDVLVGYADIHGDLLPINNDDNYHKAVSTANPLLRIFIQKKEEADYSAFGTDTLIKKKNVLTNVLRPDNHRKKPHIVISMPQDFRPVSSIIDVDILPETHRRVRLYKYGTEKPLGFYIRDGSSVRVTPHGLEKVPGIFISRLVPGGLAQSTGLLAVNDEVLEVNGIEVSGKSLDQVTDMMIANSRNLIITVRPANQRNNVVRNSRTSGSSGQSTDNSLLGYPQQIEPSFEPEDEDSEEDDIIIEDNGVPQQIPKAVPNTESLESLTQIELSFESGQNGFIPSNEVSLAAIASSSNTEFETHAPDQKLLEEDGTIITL
UniProt Q99943: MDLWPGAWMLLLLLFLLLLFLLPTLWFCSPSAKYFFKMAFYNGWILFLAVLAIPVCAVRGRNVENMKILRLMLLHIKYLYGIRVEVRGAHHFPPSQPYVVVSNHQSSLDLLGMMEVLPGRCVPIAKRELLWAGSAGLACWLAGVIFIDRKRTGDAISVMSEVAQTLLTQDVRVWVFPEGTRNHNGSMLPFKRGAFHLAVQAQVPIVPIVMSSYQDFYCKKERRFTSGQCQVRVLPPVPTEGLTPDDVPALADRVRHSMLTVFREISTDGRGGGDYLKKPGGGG
UniProt Q96TA1: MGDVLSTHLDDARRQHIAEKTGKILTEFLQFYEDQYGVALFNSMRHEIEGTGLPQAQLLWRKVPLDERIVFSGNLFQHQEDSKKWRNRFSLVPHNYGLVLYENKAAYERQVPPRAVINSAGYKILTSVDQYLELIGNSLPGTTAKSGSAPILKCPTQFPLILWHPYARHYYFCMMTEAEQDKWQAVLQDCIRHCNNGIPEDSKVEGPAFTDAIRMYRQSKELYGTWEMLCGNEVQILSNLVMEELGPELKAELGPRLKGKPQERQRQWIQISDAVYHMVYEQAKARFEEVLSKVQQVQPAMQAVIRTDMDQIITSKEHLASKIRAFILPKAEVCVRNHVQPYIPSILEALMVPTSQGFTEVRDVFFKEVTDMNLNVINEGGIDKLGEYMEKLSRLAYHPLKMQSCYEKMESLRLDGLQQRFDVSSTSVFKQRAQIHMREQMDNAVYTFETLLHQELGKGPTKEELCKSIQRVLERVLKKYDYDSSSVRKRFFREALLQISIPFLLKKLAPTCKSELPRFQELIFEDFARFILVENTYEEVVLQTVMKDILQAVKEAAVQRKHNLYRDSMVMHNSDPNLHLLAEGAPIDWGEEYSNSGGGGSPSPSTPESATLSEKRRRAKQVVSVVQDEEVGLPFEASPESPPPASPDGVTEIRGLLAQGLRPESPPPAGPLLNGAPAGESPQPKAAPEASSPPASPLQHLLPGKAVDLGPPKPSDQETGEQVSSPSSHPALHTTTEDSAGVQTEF
UniProt Q9BZL1: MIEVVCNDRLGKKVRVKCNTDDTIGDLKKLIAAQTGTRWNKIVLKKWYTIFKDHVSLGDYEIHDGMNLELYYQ
UniProt Q9BW71: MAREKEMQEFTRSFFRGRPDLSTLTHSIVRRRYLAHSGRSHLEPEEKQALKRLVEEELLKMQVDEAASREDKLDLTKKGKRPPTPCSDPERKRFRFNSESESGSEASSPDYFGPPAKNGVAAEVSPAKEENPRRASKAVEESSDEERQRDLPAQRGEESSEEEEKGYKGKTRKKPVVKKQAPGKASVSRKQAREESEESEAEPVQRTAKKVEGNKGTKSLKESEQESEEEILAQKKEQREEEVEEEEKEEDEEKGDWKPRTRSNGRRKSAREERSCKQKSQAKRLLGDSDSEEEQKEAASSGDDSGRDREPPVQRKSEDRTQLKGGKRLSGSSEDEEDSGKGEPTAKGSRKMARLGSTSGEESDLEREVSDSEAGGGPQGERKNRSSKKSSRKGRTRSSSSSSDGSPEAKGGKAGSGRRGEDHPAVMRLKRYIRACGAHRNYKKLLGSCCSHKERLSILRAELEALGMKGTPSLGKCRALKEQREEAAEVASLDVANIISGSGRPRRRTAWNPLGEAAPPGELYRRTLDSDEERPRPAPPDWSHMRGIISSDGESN
UniProt Q9BSJ2, whole entry: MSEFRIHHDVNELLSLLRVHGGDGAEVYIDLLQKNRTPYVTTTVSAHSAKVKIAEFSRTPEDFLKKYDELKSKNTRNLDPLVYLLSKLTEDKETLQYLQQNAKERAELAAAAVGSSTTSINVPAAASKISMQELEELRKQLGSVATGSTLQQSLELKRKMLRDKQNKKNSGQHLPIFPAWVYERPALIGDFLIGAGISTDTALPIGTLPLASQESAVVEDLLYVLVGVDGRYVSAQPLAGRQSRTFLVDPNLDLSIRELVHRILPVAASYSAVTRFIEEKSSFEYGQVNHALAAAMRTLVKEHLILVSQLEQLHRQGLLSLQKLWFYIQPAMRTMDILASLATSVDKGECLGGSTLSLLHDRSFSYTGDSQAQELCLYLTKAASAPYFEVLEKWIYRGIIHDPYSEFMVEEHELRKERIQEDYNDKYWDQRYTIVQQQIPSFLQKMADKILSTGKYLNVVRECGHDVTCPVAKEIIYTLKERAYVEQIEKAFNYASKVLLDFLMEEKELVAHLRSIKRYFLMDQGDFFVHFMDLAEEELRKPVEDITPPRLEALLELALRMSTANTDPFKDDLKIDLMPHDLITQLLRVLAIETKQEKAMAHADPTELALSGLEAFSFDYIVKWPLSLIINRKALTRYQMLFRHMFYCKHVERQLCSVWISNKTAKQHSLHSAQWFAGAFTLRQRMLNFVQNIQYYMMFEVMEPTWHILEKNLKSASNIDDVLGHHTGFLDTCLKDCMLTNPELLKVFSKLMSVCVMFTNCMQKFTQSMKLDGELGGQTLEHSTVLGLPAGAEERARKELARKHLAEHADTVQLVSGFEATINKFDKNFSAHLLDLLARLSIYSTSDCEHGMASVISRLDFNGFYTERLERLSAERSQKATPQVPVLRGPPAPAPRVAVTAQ
UniProt Q9BWF3: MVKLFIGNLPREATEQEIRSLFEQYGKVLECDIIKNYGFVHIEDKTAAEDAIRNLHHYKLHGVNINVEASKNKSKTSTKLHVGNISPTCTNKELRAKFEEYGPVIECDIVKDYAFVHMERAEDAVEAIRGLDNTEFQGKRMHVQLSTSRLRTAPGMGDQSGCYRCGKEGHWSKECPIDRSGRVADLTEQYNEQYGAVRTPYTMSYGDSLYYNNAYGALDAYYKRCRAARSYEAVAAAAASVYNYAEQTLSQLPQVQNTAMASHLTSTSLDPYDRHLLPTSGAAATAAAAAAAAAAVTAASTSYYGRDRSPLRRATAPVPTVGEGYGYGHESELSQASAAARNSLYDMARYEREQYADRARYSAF
UniProt Q9BQ75: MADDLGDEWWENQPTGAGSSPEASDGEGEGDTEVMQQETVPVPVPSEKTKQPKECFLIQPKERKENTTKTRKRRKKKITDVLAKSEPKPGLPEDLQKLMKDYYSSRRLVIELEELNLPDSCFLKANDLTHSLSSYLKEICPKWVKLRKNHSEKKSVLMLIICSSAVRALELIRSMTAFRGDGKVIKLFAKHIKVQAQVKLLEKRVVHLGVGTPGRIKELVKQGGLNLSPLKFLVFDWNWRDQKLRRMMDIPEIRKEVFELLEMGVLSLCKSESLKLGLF
UniProt Q99523, whole entry: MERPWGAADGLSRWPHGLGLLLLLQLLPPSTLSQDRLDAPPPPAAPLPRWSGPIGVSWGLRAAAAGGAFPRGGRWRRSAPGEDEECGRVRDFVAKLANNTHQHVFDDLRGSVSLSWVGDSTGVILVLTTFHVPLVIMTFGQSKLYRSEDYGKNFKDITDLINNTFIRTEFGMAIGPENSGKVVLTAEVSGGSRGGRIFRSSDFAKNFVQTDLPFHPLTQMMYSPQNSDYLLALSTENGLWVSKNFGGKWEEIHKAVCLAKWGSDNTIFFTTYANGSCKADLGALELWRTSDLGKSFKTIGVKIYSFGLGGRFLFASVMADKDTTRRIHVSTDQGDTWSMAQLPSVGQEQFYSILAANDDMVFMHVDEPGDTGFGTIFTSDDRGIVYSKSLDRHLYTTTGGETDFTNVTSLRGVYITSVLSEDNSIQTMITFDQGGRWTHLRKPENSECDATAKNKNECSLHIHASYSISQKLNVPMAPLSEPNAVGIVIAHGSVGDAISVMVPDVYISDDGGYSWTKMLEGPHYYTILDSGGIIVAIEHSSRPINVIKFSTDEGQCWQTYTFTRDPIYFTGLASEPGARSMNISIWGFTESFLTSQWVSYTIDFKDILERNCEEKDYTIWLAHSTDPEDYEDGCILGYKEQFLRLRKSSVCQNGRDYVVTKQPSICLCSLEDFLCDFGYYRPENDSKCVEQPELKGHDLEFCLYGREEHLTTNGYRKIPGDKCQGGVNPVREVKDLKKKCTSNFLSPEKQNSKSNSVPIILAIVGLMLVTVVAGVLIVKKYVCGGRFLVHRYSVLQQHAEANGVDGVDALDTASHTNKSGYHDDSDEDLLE
UniProt Q9BX70: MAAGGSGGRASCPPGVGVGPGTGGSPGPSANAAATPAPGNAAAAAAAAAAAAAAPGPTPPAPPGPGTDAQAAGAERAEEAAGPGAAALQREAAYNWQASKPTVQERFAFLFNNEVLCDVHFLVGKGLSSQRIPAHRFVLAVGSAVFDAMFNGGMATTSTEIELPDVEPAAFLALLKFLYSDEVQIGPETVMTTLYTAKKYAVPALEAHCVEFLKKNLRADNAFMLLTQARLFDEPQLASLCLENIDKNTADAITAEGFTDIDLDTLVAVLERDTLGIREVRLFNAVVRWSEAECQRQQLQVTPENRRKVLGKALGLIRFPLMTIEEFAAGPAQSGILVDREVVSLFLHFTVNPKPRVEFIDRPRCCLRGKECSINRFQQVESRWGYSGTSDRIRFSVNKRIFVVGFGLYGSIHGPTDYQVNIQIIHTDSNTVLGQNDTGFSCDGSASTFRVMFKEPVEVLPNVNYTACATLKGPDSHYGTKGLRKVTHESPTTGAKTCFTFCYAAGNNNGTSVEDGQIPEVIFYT
UniProt Q9BX68: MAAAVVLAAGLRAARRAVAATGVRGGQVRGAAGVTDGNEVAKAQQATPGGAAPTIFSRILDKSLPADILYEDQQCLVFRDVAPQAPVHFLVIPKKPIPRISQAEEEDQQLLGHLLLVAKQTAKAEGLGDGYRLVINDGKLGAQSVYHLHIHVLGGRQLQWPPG
UniProt Q9BRR8: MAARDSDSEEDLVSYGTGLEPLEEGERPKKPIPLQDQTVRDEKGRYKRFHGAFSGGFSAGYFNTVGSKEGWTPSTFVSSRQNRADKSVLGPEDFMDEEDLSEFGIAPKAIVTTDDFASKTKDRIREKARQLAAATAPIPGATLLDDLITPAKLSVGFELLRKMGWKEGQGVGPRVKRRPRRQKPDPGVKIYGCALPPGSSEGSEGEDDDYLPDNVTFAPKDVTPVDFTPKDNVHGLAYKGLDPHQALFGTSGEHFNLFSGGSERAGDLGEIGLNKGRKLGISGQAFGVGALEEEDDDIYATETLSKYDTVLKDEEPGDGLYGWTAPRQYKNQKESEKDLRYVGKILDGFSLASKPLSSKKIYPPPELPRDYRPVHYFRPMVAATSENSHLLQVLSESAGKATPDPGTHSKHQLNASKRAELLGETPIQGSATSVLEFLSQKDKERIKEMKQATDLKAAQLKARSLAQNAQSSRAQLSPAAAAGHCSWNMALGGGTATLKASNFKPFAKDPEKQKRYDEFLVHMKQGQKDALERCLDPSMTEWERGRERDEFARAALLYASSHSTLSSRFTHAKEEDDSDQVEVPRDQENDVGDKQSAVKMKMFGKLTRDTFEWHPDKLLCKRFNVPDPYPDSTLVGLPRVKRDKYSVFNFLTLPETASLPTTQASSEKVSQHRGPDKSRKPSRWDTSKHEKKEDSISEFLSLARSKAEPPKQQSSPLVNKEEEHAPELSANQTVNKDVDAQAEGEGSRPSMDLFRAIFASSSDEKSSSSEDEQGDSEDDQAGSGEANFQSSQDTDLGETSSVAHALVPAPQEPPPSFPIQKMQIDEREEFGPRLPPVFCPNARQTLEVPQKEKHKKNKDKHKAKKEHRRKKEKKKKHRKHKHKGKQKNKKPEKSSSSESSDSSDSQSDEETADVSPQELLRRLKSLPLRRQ

Compound: Nc1ncnc2c1ncn2[C@@H]1O[C@H](COP(=O)(O)OP(=O)(O)OP(=O)(O)O)[C@@H](O)[C@H]1O [adenosine triphosphate]
Experiment: NP40-soluble protein abundance relative to vehicle (solubility fold change) (ratio); higher = more soluble protein in presence of ATP
Outline: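 In three independent experiments, Jurkat crude lysate made by Dounce homogenisation was treated for 10 min at room temperature and then 3 min at 37 °C with eight concentrations ranging from 0.1 to 10 mM. It was then solubilised with 0.8% NP40 plus benzonase for 60 min at 4 °C and ultracentrifuged. The supernatant was TMT-labelled for LC-MS/MS, and each value is the fold change against the detergent-processed vehicle for the same replicate, using vsn-normalised intensities.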

Target	NP40-soluble protein abundance (concentration: 1mM)	NP40-soluble protein abundance (concentration: 2mM)	NP40-soluble protein abundance (concentration: 4mM)	NP40-soluble protein abundance (concentration: 6mM)	NP40-soluble protein abundance (concentration: 8mM)	NP40-soluble protein abundance (concentration: 10mM)
UniProt Q9BZI7 and related entries	1 ± 0.042	1.016 ± 0.01	1.013 ± 0.0027	1.06 ± 0.021	1.02 ± 0.023	1.04 ± 0.025
UniProt Q9C035 and related entries	0.968 ± 0.051	0.937 ± 0.043	0.957 ± 0.082	0.977 ± 0.077	0.926 ± 0.096	0.918 ± 0.059
UniProt Q9BRR9-2|Q9BRR9-4|Q9BRR9-5|R4GN15	0.873 ± 0.02	0.863 ± 0.052	0.897 ± 0.069	0.838 ± 0.075	0.855 ± 0.059	0.859 ± 0.073
PARD6B (UniProt Q9BYG5)	1.02 ± 0.097	1.04 ± 0.052	1.03 ± 0.12	1.026 ± 0.0044	0.989 ± 0.039	1.01 ± 0.038
UniProt Q9BQG0 and related entries	0.958 ± 0.033	0.97 ± 0.05	0.938 ± 0.047	0.885 ± 0.027	0.904 ± 0.055	0.935 ± 0.051
MRPL32 (UniProt Q9BYC8)	1.05 ± 0.14	0.917 ± 0.14	1.01 ± 0.16	0.937 ± 0.3	1.02 ± 0.24	0.904 ± 0.21
C1orf50 (UniProt Q9BV19)	1.07 ± 0.04	1.01 ± 0.026	1.02 ± 0.011	0.989 ± 0.03	0.989 ± 0.025	0.999 ± 0.04
UniProt Q9BXW9 and related entries	0.922 ± 0.027	0.919 ± 0.019	0.9 ± 0.043	0.906 ± 0.037	0.886 ± 0.048	0.929 ± 0.023
KIFC1 (UniProt Q9BW19)	1.05 ± 0.039	1.05 ± 0.025	1.04 ± 0.029	1.11 ± 0.016	1.08 ± 0.025	1.07 ± 0.013
AGPAT1 (UniProt Q99943)	0.966 ± 0.066	0.967 ± 0.032	0.964 ± 0.039	0.958 ± 0.06	0.972 ± 0.035	0.9596 ± 0.004
UniProt Q9BW85	0.911 ± 0.098	0.924 ± 0.074	0.923 ± 0.096	1 ± 0.11	0.888 ± 0.027	0.908 ± 0.0094
UniProt Q96TA1 and related entries	0.989 ± 0.022	0.99 ± 0.018	0.961 ± 0.02	0.963 ± 0.011	0.987 ± 0.015	0.974 ± 0.025
TMED9 (UniProt Q9BVK6)	1.02 ± 0.12	1 ± 0.077	0.995 ± 0.072	0.964 ± 0.089	0.995 ± 0.077	0.959 ± 0.056
MRPL1 (UniProt Q9BYD6)	0.957 ± 0.052	0.939 ± 0.05	0.902 ± 0.082	0.88 ± 0.077	0.901 ± 0.098	0.875 ± 0.079
UniProt Q99623	0.921 ± 0.031	0.894 ± 0.03	0.859 ± 0.015	0.871 ± 0.015	0.885 ± 0.032	0.898 ± 0.046
LIMD2 (UniProt Q9BT23)	0.991 ± 0.074	1.01 ± 0.059	1.01 ± 0.038	1.05 ± 0.12	0.986 ± 0.079	0.942 ± 0.045
PCGF6 (UniProt Q9BYE7)	0.956 ± 0.11	0.989 ± 0.056	0.967 ± 0.12	1.02 ± 0.041	0.996 ± 0.07	0.983 ± 0.028
UniProt Q9BTK6	0.779 ± 0.094	0.754 ± 0.12	0.736 ± 0.043	0.748 ± 0.071	0.693 ± 0.039	0.674 ± 0.099
EIF2A (UniProt Q9BY44)	0.952 ± 0.024	0.952 ± 0.031	0.933 ± 0.0099	0.953 ± 0.051	0.921 ± 0.024	0.951 ± 0.027
UniProt Q9BW83 and related entries	1.01 ± 0.074	1 ± 0.094	1.01 ± 0.083	0.972 ± 0.093	0.967 ± 0.11	0.955 ± 0.076
UniProt Q9BZL1	1.04 ± 0.061	1.11 ± 0.06	1.072 ± 0.0098	1.12 ± 0.096	1.1 ± 0.056	1.073 ± 0.0023
UniProt Q99638 and related entries	1.06 ± 0.085	0.965 ± 0.23	1.06 ± 0.063	1.08 ± 0.069	1.03 ± 0.24	0.997 ± 0.09
GNB1L (UniProt Q9BYB4)	1.07 ± 0.031	1.06 ± 0.07	1.08 ± 0.049	1.03 ± 0.093	1.05 ± 0.038	1.03 ± 0.05
UniProt Q9BQA9 and related entries	0.959 ± 0.18	0.979 ± 0.11	1.02 ± 0.098	0.807 ± 0.13	0.923 ± 0.031	1 ± 0.039
SLC12A9 (UniProt Q9BXP2)	0.964 ± 0.089	0.984 ± 0.081	1 ± 0.13	0.991 ± 0.049	1.01 ± 0.031	1 ± 0.023
KIF2C (UniProt Q99661)	1.04 ± 0.025	1.03 ± 0.041	1.02 ± 0.041	1.05 ± 0.043	1.03 ± 0.036	1.02 ± 0.038

Full records as entered above:
UniProt Q9BZI7 and related entries reads NP40-soluble protein abundance (concentration: 1mM): 1 ± 0.042; NP40-soluble protein abundance (concentration: 2mM): 1.016 ± 0.01; NP40-soluble protein abundance (concentration: 4mM): 1.013 ± 0.0027; NP40-soluble protein abundance (concentration: 6mM): 1.06 ± 0.021; NP40-soluble protein abundance (concentration: 8mM): 1.02 ± 0.023; NP40-soluble protein abundance (concentration: 10mM): 1.04 ± 0.025
UniProt Q96TA1 and related entries reads NP40-soluble protein abundance (concentration: 1mM): 0.989 ± 0.022; NP40-soluble protein abundance (concentration: 2mM): 0.99 ± 0.018; NP40-soluble protein abundance (concentration: 4mM): 0.961 ± 0.02; NP40-soluble protein abundance (concentration: 6mM): 0.963 ± 0.011; NP40-soluble protein abundance (concentration: 8mM): 0.987 ± 0.015; NP40-soluble protein abundance (concentration: 10mM): 0.974 ± 0.025
UniProt Q9BW83 and related entries reads NP40-soluble protein abundance (concentration: 1mM): 1.01 ± 0.074; NP40-soluble protein abundance (concentration: 2mM): 1 ± 0.094; NP40-soluble protein abundance (concentration: 4mM): 1.01 ± 0.083; NP40-soluble protein abundance (concentration: 6mM): 0.972 ± 0.093; NP40-soluble protein abundance (concentration: 8mM): 0.967 ± 0.11; NP40-soluble protein abundance (concentration: 10mM): 0.955 ± 0.076

Additional results:

Target	NP40-soluble protein abundance (concentration: 1mM)	NP40-soluble protein abundance (concentration: 2mM)	NP40-soluble protein abundance (concentration: 4mM)	NP40-soluble protein abundance (concentration: 6mM)	NP40-soluble protein abundance (concentration: 8mM)	NP40-soluble protein abundance (concentration: 10mM)
RNF5 (UniProt Q99942)	0.932 ± 0.043	0.913 ± 0.044	0.925 ± 0.024	0.955 ± 0.049	0.943 ± 0.047	0.898 ± 0.063
HIRIP3 (UniProt Q9BW71)	0.917 ± 0.067	0.931 ± 0.045	0.913 ± 0.037	0.951 ± 0.064	0.908 ± 0.021	0.929 ± 0.029
UniProt Q9BSJ2 and related entries	1.15 ± 0.13	1 ± 0.022	1.01 ± 0.044	1.01 ± 0.12	1.09 ± 0.099	1.07 ± 0.11
UniProt Q99708-3|I6L8A6 and related entries	0.952 ± 0.045	0.982 ± 0.042	0.984 ± 0.021	0.921 ± 0.095	0.89 ± 0.086	0.925 ± 0.082
DPH2 (UniProt Q9BQC3)	0.932 ± 0.086	1 ± 0.038	0.974 ± 0.037	0.932 ± 0.048	0.941 ± 0.024	0.923 ± 0.05
RBM4B (UniProt Q9BQ04)	1.12 ± 0.14	1.06 ± 0.072	1.09 ± 0.088	1.02 ± 0.035	1 ± 0.035	1.07 ± 0.061
KATNAL1 (UniProt Q9BW62)	0.957 ± 0.059	0.935 ± 0.037	0.952 ± 0.044	0.954 ± 0.073	0.939 ± 0.038	0.927 ± 0.051
RBM4 (UniProt Q9BWF3)	0.982 ± 0.083	1.02 ± 0.07	1.01 ± 0.11	1.04 ± 0.13	0.995 ± 0.082	1.04 ± 0.086
THUMPD3 (UniProt Q9BV44)	0.981 ± 0.089	0.968 ± 0.054	0.935 ± 0.064	0.937 ± 0.076	0.949 ± 0.058	0.955 ± 0.056
UniProt Q99755-3|A6PW57	1.2 ± 0.022	1.21 ± 0.044	1.25 ± 0.043	1.3 ± 0.035	1.28 ± 0.024	1.27 ± 0.035
UniProt Q9BU76 and related entries	1.05 ± 0.049	1.04 ± 0.058	1.07 ± 0.1	1.15 ± 0.046	1.15 ± 0.12	1.18 ± 0.077
OSBPL11 (UniProt Q9BXB4)	0.978 ± 0.013	0.9883 ± 0.0077	0.974 ± 0.035	0.9555 ± 0.0081	0.982 ± 0.029	0.978 ± 0.021
UniProt Q9BX67	0.88 ± 0.038	0.939 ± 0.034	0.923 ± 0.016	0.897 ± 0.087	0.891 ± 0.054	0.934 ± 0.041
UniProt Q9BQ75 and related entries	0.922 ± 0.083	0.96 ± 0.075	1.04 ± 0.047	0.971 ± 0.16	1.07 ± 0.05	1.14 ± 0.071
SORT1 (UniProt Q99523)	0.912 ± 0.016	0.942 ± 0.016	0.923 ± 0.009	0.949 ± 0.024	0.893 ± 0.012	0.907 ± 0.024
BTBD2 (UniProt Q9BX70)	1.05 ± 0.053	0.952 ± 0.011	0.9572 ± 0.0019	1.02 ± 0.052	0.969 ± 0.013	0.957 ± 0.082
COPS4 (UniProt Q9BT78)	0.977 ± 0.048	0.9759 ± 0.0091	0.936 ± 0.01	0.964 ± 0.038	0.977 ± 0.021	0.923 ± 0.043
UCK2 (UniProt Q9BZX2)	1.02 ± 0.061	1.02 ± 0.052	0.97 ± 0.09	1.01 ± 0.053	1.01 ± 0.085	0.98 ± 0.053
WDR11 (UniProt Q9BZH6)	0.92 ± 0.097	0.949 ± 0.047	0.96 ± 0.017	0.886 ± 0.017	0.971 ± 0.039	1.03 ± 0.065
UniProt Q9BXS5 and related entries	1.03 ± 0.12	0.97 ± 0.088	0.938 ± 0.09	0.898 ± 0.16	0.953 ± 0.056	0.969 ± 0.072
DCTN5 (UniProt Q9BTE1)	0.98 ± 0.05	0.997 ± 0.091	0.976 ± 0.06	0.958 ± 0.074	0.981 ± 0.079	0.995 ± 0.079
HINT2 (UniProt Q9BX68)	1.003 ± 0.0072	0.996 ± 0.015	0.969 ± 0.012	0.971 ± 0.025	0.955 ± 0.062	0.934 ± 0.019
UniProt Q96T76 and related entries	0.944 ± 0.06	0.947 ± 0.1	0.962 ± 0.052	0.877 ± 0.06	0.932 ± 0.054	0.944 ± 0.057
UniProt Q9BZE1 and related entries	1.14 ± 0.049	1 ± 0.15	0.95 ± 0.072	0.844 ± 0.21	1.02 ± 0.21	0.963 ± 0.21
POLR3C (UniProt Q9BUI4)	1.01 ± 0.096	0.988 ± 0.028	0.972 ± 0.057	0.974 ± 0.043	1 ± 0.052	1.02 ± 0.051
GPATCH1 (UniProt Q9BRR8)	0.957 ± 0.069	0.99 ± 0.13	1.08 ± 0.024	1.19 ± 0.16	1.07 ± 0.17	1.17 ± 0.067
